Laboratory results as given in the supplement of paper PMC10331698.
± gives the standard deviation of the averaged measurements. Most values lie at the level of the controls, where differences are scatter.

Tests used:
Experiment in all cases: level (log10 ratio to DMSO vehicle control); higher = higher biomarker level / cell amount than vehicle control
[1] = compound: CC(C)(C)C(=O)CC(=O)C(F)(F)C(F)(F)C(F)(F)F [(Heptafluorobutanoyl)pivaloylmethane]; conditions: 2200 nM; in DMSO
Experimental: (§1)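 BioMAP Diversity Plus panel of 12 human primary cell co-culture systems (3C, 4H, LPS, SAg, BT, BF4T, BE3C, CASM3C, HDF3CGF, KF3CT, MyoF, Mphg). Compounds were added 1 h before stimulation and left for 24 h (MyoF 48 h; BT 72 h for soluble read-outs or 6 d for IgG). Biomarkers were read by ELISA, cytotoxicity by SRB, PBMC viability and proliferation by Alamar Blue. Each well value was divided by the mean of 8 DMSO control wells on the same plate and log10 transformed; duplicate blinded samples were tested at 4 concentrations.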

1-(Perfluorohexyl)octane = compound: CCCCCCCCC(F)(F)C(F)(F)C(F)(F)C(F)(F)C(F)(F)C(F)(F)F [1-(Perfluorohexyl)octane]; conditions: in DMSO
Experimental: as §1

[2] = compound: CCN(CCO)S(=O)(=O)C(F)(F)C(F)(F)C(F)(F)C(F)(F)C(F)(F)C(F)(F)C(F)(F)C(F)(F)F [N-Ethyl-N-(2-hydroxyethyl)perfluorooctanesulfonamide]; conditions: in DMSO
Experimental: as §1

[3] = compound: CN(C(=O)C(F)(F)C(F)(F)C(F)(F)F)[Si](C)(C)C [N-Methyl-N-trimethylsilylheptafluorobutyramide]; conditions: 2200 nM; in DMSO
Experimental: as §1

[4] = compound: Cc1ccc(S(=O)(=O)OCC(F)(F)C(F)(F)C(F)(F)C(F)(F)C(F)(F)C(F)F)cc1 [1H,1H,7H-Perfluoroheptyl 4-methylbenzenesulfonate]; conditions: 2200 nM; in DMSO
Experimental: as §1

[5] = compound: FC(F)(F)C(F)(F)C(F)(F)C(F)(F)C(F)(F)C(F)(F)CC1CO1 [3-(Perfluorohexyl)-1,2-epoxypropane]; conditions: 2200 nM; in DMSO
Experimental: as §1

Heptafluorobutyramide = compound: NC(=O)C(F)(F)C(F)(F)C(F)(F)F [Heptafluorobutyramide]; conditions: 2200 nM; in DMSO
Experimental: as §1

[6] = compound: NCC(F)(F)C(F)(F)C(F)(F)C(F)(F)C(F)(F)C(F)(F)C(F)(F)F [1H,1H-Perfluorooctylamine]; conditions: 2200 nM; in DMSO
Experimental: as §1

Octafluoroadipic acid = compound: O=C(O)C(F)(F)C(F)(F)C(F)(F)C(F)(F)C(=O)O [Octafluoroadipic acid]; conditions: 2200 nM; in DMSO
Experimental: as §1

[7] = compound: O=C(O)C(F)(F)C(F)(F)C(F)(F)C(F)(F)C(F)(F)C(F)(F)C(F)(F)C(F)(F)C(F)(F)C(F)F [11-H-Perfluoroundecanoic acid]; conditions: 2200 nM; in DMSO
Experimental: as §1

Perfluoroheptanoic acid = compound: O=C(O)C(F)(F)C(F)(F)C(F)(F)C(F)(F)C(F)(F)C(F)(F)F [Perfluoroheptanoic acid]; conditions: in DMSO
Experimental: as §1

Perfluoropentanoic acid = compound: O=C(O)C(F)(F)C(F)(F)C(F)(F)C(F)(F)F [Perfluoropentanoic acid]; conditions: in DMSO
Experimental: as §1

[8] = compound: O=C(O)C(F)(F)C(F)(F)C(F)(F)OC(F)(F)F [Perfluoro(4-methoxybutanoic) acid]; conditions: 2200 nM; in DMSO
Experimental: as §1

[9] = compound: O=S(=O)(O)CCC(F)(F)C(F)(F)C(F)(F)C(F)(F)C(F)(F)C(F)(F)C(F)(F)C(F)(F)F [8:2 Fluorotelomer sulfonic acid]; conditions: in DMSO
Experimental: as §1

1H,1H-Heptafluorobutanol = compound: OCC(F)(F)C(F)(F)C(F)(F)F [1H,1H-Heptafluorobutanol]; conditions: 2200 nM; in DMSO
Experimental: as §1

[10] = compound: OCCC(F)(F)C(F)(F)C(F)(F)C(F)(F)C(F)(F)C(F)(F)F [6:2 Fluorotelomer alcohol]; conditions: 2200 nM; in DMSO
Experimental: as §1

Test System	level (log10) [1]	level (log10) (1-(Perfluorohexyl)octane; 740 nM)	level (log10) (1-(Perfluorohexyl)octane; 2200 nM)	level (log10) ([2]; 2200 nM)	level (log10) ([2]; 6700 nM)	level (log10) ([2]; 20000 nM)	level (log10) [3]	level (log10) [4]	level (log10) [5]	level (log10) (Heptafluorobutyramide)	level (log10) [6]	level (log10) (Octafluoroadipic acid)	level (log10) [7]	level (log10) (Perfluoroheptanoic acid; 2200 nM)	level (log10) (Perfluoroheptanoic acid; 6700 nM)	level (log10) (Perfluoroheptanoic acid; 20000 nM)	level (log10) (Perfluoroheptanoic acid; 60000 nM)	level (log10) (Perfluoropentanoic acid; 2200 nM)	level (log10) (Perfluoropentanoic acid; 6700 nM)	level (log10) (Perfluoropentanoic acid; 20000 nM)	level (log10) (Perfluoropentanoic acid; 60000 nM)	level (log10) [8]	level (log10) ([9]; 2200 nM)	level (log10) ([9]; 6700 nM)	level (log10) ([9]; 20000 nM)	level (log10) ([9]; 60000 nM)	level (log10) (1H,1H-Heptafluorobutanol)	level (log10) [10]
LPS:CD141/Thrombomodulin	-0.016 ± 0.0057	0.008 ± 0.027	-0.008 ± 0.0042	0.101 ± 0.018	0.117 ± 0.0042	0.201	0.0125 ± 0.025	0.003 ± 0.02	-0.019 ± 0.02	-0.0465 ± 0.063	-0.0095 ± 0.005	-0.022 ± 0.013	0.0505 ± 0.052	-0.009	-0.0115 ± 0.03	0.002 ± 0.011	-0.035 ± 0.0099	-0.004 ± 0.025	-0.0115 ± 0.047	-0.045 ± 0.073	-0.0085 ± 0.11	-0.0235 ± 0.015	-0.0015 ± 0.1	0.007 ± 0.11	0.0505 ± 0.071	0.205 ± 0.016	0.004 ± 0.017	-0.016 ± 0.0057
4H:CCL2/MCP-1	0.023 ± 0.072	0.0255 ± 0.12	-0.026 ± 0.0099	0.022 ± 0.0099	-0.007 ± 0.0099	-0.159 ± 0.044	0.022 ± 0.069	-0.002 ± 0.1	0.023 ± 0.038	0.012 ± 0.051	0.0165 ± 0.066	-0.005 ± 0.078	-0.0125 ± 0.076	0.0175 ± 0.043	-0.0115 ± 0.0064	-0.0165 ± 0.013	0.025 ± 0.024	0.0095 ± 0.047	-0.0085 ± 0.052	-0.047 ± 0.0042	0.014 ± 0.052	0.0355 ± 0.035	0.0075 ± 0.047	-0.001 ± 0.014	-0.033 ± 0.016	0.0125 ± 0.046	0.031 ± 0.058	0.031 ± 0.062
BF4T:CD54/ICAM-1	0.0085 ± 0.0092	-0.0105 ± 0.0078	-0.0115 ± 0.0064	0.0355 ± 0.0064	0.0495 ± 0.016	0.032 ± 0.0042	-0.014 ± 0.016	-0.003 ± 0.014	0.0235 ± 0.0092	0.0035 ± 0.037	-0.0025 ± 0.016	0.02 ± 0.0071	-0.0505 ± 0.0078	0.011 ± 0.024	-0.022 ± 0.0071	-0.011 ± 0.0085	0.004 ± 0.0071	-0.0065 ± 0.015	-0.0155 ± 0.0021	-0.0135 ± 0.005	0.0015 ± 0.043	0.0095 ± 0.035	0.014 ± 0.013	-0.006 ± 0.0014	-0.0175 ± 0.00071	-0.0325 ± 0.013	0.008 ± 0.0028	0.0055 ± 0.023
SAg:CD40	0.017 ± 0.064	-0.0395 ± 0.018	-0.0155 ± 0.0064	-0.0105 ± 0.0092	0 ± 0.028	-0.052 ± 0.023	-0.036 ± 0.034	-0.029 ± 0.0071	-0.0095 ± 0.012	-0.0075 ± 0.015	-0.011 ± 0.02	-0.0145 ± 0.005	-0.003 ± 0.021	-0.009 ± 0.016	-0.015 ± 0.027	-0.006 ± 0.0028	-0.021 ± 0.018	-0.007 ± 0.021	0.0105 ± 0.005	0.0025 ± 0.0064	-0.001 ± 0.025	-0.011 ± 0.0099	-0.015 ± 0.047	-0.013 ± 0.051	-0.0215 ± 0.021	-0.071 ± 0.051	0.0025 ± 0.015	-0.0015 ± 0.013
